The other results are listed elsewhere or left out.
compound: c1cn2cc(-c3ccc4cn[nH]c4c3)nc(Nc3ccc(N4CCOCC4)cc3)c2n1 [entospletinib]; assay: log2 fold change, soluble protein after heating vs DMSO (PISA); higher = thermal stabilisation; K562 cells, 10 uM, 30 min; active = over 0.2 and 3.5 SD of the protein, either way, in both replicates (recomputed)
How it was run: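 K562 cells at 2×10^6 cells/mL were given 10 μM compound for 30 min. Aliquots then went through 3 min of heating across 48°C-58°C, were pooled, and were extracted in PBS with 0.5% NP-40 at 4°C, and the supernatant after 21,000xg for 90 min was quantified by TMTpro 16plex LC-MS/MS with channel sums equalised. Thermal stability relative to control samples, from duplicates, is given as log2 fold change.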

The chains behind the UniProt entries cited, without tags or fusion partners. Where a name states a change or a piece, a line headed by the entry shows the natural chain unless it says otherwise.
UniProt Q9BRT6: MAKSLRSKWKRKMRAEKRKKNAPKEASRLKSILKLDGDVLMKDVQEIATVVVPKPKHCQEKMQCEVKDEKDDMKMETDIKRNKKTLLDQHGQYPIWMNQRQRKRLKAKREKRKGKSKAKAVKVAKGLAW
UniProt Q96AG4: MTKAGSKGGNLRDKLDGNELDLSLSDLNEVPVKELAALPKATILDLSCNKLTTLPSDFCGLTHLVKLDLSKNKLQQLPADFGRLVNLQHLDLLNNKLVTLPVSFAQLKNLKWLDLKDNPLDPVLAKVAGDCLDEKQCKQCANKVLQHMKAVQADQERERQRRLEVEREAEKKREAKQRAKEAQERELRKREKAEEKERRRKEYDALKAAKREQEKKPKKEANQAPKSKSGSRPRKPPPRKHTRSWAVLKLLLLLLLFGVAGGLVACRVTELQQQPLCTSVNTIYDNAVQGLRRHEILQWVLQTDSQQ
UniProt P28838: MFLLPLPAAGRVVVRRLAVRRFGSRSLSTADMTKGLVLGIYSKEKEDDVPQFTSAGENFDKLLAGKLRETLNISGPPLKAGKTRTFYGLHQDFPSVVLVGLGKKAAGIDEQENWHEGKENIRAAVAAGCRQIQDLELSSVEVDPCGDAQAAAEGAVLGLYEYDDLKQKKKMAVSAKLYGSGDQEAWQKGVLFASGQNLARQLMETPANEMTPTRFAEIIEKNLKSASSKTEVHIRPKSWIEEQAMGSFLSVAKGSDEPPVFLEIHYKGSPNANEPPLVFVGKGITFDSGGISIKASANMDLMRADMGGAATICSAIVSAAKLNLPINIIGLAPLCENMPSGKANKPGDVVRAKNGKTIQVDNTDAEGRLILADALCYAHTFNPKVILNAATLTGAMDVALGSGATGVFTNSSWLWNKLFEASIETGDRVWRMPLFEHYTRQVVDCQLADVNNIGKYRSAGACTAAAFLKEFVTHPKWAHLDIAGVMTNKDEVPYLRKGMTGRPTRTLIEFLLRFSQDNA
UniProt O95214: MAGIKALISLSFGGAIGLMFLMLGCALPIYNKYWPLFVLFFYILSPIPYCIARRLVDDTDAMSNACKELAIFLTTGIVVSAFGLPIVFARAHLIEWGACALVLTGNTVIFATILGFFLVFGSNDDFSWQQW
UniProt O43813, whole entry, looked up: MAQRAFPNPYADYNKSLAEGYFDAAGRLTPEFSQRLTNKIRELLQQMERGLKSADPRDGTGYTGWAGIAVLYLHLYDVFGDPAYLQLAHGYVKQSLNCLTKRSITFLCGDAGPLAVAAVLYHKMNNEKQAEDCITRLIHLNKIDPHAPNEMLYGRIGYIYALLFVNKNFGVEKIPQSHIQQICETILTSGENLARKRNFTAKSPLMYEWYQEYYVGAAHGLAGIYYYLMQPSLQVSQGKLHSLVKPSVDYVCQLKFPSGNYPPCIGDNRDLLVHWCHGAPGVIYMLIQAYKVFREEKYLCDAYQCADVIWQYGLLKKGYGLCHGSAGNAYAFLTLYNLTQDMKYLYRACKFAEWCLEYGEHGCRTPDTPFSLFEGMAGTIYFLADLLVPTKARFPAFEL
UniProt Q6P1Q0: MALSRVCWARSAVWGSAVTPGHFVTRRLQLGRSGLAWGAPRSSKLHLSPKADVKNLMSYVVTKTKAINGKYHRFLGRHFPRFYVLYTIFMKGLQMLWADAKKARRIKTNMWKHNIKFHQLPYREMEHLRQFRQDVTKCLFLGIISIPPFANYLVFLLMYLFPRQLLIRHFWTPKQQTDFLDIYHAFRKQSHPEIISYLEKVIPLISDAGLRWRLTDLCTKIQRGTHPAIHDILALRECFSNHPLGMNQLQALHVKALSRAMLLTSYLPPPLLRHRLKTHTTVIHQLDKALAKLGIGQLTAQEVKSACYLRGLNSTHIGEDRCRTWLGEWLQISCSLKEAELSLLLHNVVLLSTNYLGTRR
UniProt Q9H0V9: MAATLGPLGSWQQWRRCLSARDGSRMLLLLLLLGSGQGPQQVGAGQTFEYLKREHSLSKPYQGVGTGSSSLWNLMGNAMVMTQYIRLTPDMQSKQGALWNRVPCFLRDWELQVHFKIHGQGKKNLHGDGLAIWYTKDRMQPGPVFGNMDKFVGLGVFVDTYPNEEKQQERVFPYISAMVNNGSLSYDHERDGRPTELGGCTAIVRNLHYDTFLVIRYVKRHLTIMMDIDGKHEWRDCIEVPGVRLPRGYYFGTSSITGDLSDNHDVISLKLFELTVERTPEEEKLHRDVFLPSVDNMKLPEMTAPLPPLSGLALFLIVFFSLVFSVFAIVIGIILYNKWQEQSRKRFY
UniProt Q12907: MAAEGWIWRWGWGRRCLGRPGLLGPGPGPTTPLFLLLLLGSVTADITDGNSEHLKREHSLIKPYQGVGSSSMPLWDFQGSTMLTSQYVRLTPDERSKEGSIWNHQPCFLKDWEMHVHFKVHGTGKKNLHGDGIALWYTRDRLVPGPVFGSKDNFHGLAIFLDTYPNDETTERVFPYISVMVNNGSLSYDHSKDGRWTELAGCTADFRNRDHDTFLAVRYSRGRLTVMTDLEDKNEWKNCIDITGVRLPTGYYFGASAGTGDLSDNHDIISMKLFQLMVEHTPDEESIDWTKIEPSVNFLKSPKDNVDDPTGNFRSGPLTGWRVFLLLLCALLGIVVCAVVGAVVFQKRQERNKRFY
UniProt Q15031: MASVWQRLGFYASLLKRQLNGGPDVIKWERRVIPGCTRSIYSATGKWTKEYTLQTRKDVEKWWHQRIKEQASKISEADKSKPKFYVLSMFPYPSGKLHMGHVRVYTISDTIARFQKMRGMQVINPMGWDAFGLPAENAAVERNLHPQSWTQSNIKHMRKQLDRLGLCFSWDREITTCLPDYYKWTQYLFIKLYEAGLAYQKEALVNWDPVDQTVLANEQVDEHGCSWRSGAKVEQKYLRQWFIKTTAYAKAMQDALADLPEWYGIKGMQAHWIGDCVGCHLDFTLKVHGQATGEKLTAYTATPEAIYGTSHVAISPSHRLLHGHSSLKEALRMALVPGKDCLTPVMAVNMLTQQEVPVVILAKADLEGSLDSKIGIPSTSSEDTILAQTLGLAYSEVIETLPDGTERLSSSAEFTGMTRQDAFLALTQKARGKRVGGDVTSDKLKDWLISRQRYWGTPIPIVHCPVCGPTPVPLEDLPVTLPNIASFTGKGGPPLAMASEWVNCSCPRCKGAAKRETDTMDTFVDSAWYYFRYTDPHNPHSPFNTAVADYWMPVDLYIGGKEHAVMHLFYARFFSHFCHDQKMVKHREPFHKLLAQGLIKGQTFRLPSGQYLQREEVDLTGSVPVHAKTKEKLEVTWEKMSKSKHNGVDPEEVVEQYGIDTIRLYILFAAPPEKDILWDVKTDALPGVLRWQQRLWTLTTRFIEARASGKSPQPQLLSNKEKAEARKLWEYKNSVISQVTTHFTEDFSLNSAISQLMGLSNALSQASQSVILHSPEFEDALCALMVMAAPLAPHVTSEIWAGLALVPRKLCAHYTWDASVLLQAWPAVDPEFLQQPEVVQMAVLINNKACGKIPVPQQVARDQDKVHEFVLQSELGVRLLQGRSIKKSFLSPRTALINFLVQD
UniProt Q92539: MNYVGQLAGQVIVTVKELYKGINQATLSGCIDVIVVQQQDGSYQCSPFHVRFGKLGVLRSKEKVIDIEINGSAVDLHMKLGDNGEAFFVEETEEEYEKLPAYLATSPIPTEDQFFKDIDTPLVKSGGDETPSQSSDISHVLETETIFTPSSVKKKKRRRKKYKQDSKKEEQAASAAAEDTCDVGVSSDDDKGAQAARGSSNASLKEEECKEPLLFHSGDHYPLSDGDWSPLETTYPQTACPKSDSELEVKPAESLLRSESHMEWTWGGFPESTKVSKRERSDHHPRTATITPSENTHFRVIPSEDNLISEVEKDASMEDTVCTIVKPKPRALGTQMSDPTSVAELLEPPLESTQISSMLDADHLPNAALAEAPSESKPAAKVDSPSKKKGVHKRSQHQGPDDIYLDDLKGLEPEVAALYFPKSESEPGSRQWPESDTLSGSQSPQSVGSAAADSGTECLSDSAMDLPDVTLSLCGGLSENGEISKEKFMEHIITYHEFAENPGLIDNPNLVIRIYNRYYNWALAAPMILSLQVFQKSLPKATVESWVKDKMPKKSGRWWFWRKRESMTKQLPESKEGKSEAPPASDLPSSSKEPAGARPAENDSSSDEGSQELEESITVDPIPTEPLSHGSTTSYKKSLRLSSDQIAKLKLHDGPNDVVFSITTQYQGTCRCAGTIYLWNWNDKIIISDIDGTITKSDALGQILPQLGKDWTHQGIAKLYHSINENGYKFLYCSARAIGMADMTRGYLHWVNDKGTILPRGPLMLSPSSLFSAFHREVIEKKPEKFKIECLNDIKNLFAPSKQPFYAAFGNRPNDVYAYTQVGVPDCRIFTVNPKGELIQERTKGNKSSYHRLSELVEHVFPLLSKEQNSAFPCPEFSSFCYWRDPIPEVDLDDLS
UniProt Q8N1G4: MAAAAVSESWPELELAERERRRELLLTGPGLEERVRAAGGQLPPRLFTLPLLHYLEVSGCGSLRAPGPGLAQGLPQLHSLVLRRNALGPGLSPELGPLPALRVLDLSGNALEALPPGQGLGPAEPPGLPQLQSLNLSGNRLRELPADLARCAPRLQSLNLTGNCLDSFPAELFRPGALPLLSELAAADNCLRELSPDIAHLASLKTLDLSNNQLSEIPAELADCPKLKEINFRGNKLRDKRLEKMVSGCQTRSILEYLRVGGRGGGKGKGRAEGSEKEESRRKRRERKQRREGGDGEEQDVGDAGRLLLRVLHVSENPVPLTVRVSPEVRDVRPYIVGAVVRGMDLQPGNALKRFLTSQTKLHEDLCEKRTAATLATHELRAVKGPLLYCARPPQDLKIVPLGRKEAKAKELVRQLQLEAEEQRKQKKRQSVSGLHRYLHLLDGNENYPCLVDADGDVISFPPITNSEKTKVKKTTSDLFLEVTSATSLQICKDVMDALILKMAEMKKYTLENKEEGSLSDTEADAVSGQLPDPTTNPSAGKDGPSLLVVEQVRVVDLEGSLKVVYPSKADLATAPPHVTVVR
UniProt P25791: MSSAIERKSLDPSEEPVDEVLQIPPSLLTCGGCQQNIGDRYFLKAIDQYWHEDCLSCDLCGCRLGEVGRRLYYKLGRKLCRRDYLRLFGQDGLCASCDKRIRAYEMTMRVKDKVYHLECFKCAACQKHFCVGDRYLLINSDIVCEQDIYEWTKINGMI
UniProt P06858: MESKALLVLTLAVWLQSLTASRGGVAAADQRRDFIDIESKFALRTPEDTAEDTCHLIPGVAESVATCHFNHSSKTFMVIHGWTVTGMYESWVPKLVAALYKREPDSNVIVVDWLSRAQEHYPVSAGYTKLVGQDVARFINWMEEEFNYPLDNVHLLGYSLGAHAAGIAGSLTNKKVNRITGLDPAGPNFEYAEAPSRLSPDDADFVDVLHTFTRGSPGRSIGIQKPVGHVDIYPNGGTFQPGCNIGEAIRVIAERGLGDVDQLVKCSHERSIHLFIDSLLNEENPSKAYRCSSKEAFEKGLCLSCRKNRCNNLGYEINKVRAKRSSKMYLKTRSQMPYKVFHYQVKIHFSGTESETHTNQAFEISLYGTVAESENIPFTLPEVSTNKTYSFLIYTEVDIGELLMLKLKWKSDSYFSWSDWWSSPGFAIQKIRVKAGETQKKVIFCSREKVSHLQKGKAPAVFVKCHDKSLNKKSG
UniProt Q14657: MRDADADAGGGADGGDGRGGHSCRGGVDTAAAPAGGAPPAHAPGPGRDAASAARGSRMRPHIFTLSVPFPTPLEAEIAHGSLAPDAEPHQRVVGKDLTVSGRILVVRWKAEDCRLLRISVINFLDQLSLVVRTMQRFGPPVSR
UniProt Q15048: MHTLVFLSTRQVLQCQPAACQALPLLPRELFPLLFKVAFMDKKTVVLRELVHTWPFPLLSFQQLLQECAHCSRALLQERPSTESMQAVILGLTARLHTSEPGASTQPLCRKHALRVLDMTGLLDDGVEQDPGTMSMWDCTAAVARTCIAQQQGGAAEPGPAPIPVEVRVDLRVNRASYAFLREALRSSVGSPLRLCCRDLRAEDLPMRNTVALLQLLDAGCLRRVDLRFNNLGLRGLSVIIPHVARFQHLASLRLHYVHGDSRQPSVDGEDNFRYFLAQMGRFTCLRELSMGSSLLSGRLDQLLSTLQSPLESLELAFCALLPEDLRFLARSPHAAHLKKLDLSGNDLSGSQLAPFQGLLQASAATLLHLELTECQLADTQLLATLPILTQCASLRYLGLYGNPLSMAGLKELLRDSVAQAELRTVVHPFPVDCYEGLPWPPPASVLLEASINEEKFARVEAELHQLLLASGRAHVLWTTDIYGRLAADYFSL
UniProt P02750: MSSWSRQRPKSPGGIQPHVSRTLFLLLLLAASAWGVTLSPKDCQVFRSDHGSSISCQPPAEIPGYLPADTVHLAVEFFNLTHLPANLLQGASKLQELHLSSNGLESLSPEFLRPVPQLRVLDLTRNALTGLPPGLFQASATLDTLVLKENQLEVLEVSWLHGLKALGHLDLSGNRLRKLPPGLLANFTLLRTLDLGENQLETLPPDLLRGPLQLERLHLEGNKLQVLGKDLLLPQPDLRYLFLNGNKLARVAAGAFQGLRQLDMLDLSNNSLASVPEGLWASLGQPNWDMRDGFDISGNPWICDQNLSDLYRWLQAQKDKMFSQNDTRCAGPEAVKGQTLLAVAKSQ

log2 fold change, inactive:
LETM1 (UniProt O95202) -0.04
LRRC40 (UniProt Q9H9A6) 0.054
LLPH (UniProt Q9BRT6) 0.037
LRCH4 (UniProt O75427) 0.507
LARP1B, A0A3B3ISF0 0.088
LIN7A (UniProt O14910) 0.01
LRRC59 (UniProt Q96AG4) 0.001
LLGL2 (UniProt Q6P1M3) 0.052
LAP3 (UniProt P28838) -0.033
LEPROTL1 isoform 2 (UniProt O95214) 0.033
LANCL1 (UniProt O43813) 0.003
LPCAT2 (UniProt Q7L5N7) -0.027
LONP1 (UniProt P36776) 0.014
LETMD1 isoform 7 (UniProt Q6P1Q0) -0.054
LRP1 (UniProt Q07954) -0.136
LMAN2L isoform 2 (UniProt Q9H0V9) 0.017
LMAN2 (UniProt Q12907) 0.005
LCLAT1 (UniProt Q6UWP7) -0.122
LARS2 (UniProt Q15031) -0.017
LRIF1 (UniProt Q5T3J3) -0.04
LPCAT1 (UniProt Q8NF37) 0.02
LRP6 (UniProt O75581) 0.014
LPIN2 (UniProt Q92539) 0.061
LRIG2 (UniProt O94898) -0.024
LAMP1 (UniProt P11279) 0.005
LGALS3BP (UniProt Q08380) -0.021
LRRC47 (UniProt Q8N1G4) 0.015
LMO2 isoform 3 (UniProt P25791) 0.016
LPL (UniProt P06858) 0.202
LENG1 (UniProt Q96BZ8) 0.03
LAGE3 (UniProt Q14657) -0.01
LRRC14 (UniProt Q15048) 0.028
LMO4 (UniProt P61968) -0.057
LAMTOR2 (UniProt Q9Y2Q5) 0.071
LRG1 (UniProt P02750) 0
LACTB (UniProt P83111) -0.017
LRP8 (UniProt E9PP15) 0.086
LIG1 (UniProt P18858) -0.089
LRPAP1 (UniProt P30533) -0.005

Taken from the listing (10 entries):
log2 fold change, inactive:
LARS2 (UniProt Q15031) -0.017
LRIF1 (UniProt Q5T3J3) -0.04
LPCAT1 (UniProt Q8NF37) 0.02
LRP6 (UniProt O75581) 0.014
LPIN2 (UniProt Q92539) 0.061
LRIG2 (UniProt O94898) -0.024
LAMP1 (UniProt P11279) 0.005
LGALS3BP (UniProt Q08380) -0.021
LRRC47 (UniProt Q8N1G4) 0.015
LMO2 isoform 3 (UniProt P25791) 0.016

Reference: the supplement of paper PMC10849652
